According to publication PMC10946275, “New imidazole-2-thiones linked to acenaphythylenone as dual DNA intercalators and topoisomerase II inhibitors: structural optimization, docking, and apoptosis studies” (Journal of Enzyme Inhibition and Medicinal Chemistry, 2024):

Tested on: calf thymus DNA (ctDNA)
Assay: Terbium (Tb3+) luminescent biosensor detection of induced DNA damage
Type: biochemical
Details: Tb luminescence vs compound concentration, ctDNA, 24 h incubation
Description: Luminescence studies were accomplished in order to examine the possible DNA interaction with the studied compounds. Many luminescent biosensors are reported in literature for studying the possibility of DNA interaction with small molecules. […] Figure 5 presents a schematic diagram for the fluorometric detection of the induced DNA damage using Tb biosensor. Tb^3+ ion in the Tb luminescent probe is a trivalent lanthanide cation having low intrinsic luminescence in aqueous solutions[45]^,[46]. When Tb biosensor is added to a solution of DNA, it interacts differently with double-stranded DNA (dsDNA) and single-stranded DNA (ssDNA). With dsDNA, Tb^3+ ions are electrostatically attracted to the negatively charged phosphate backbone of the DNA. […] Therefore, the assessed compound damages dsDNA, ssDNA sites would be formed opposite to the site of damage and Tb^3+ would directly coordinate to the unpaired nucleobases in this single-stranded site.
For investigating the DNA interaction potential of the fourteen studied compounds, calf thymus DNA (ctDNA) was incubated with each compound for 24 h and then Tb was added to each mixture. Doxorubicin (DOX), a commonly used reference for DNA damaging agent was used and treated the same condition as the studied compounds. Tb luminescent intensity was measured at λmax = 545 nm after excitation at λmax = 270 nm.
Several concentrations within the range of 0.1 pM–200.0 μM of each of the studied compounds were incubated with ctDNA for 24 h. After which, Tb solution was added to aliquots of such mixtures and the luminescence intensity was recorded. Figure 7 presents Tb luminescence intensity as a function of the compound concentration for various compound/ctDNA/Tb mixtures. At minimum concentration of the studied compounds, minimum Tb luminescence was recorded. This reflects that the DNA molecule is undamaged, intact and acquiring a double helical structure. In this conformation, Tb ions are electrostatically attracted to the negatively charged DNA-phosphate backbone showing no increase in its luminescence. For solutions with higher concentrations of compounds 5b, 5h, and 5j (Figure 7a,c,and d). Tb fluorescence increased proportionally with the concentration until a concentration of 100 and 60 μM for compounds 5b, 5h, and 5j, respectively, where no further increase in the fluorescence occurs. This reflects that more DNA damage is induced with increasing concentrations of the three compounds. At concentrations higher than 100 and 60 μM for compounds 5b, 5h, and 5j, respectively, Tb luminescence remains constant at high fluorescence levels. […] Table 1 illustrates the analytical parameters elucidated as shown in Figure 7 for the quantification of the induced DNA damage by the studied compounds. The linearity parameters were calculated from the calibration curve in Figure 7-inset in order to obtain the minimum concentration of the studied compounds that would induce DNA damage.
Fluorescence measurements: Fluorescence spectra were measured between 290 and 800 nm with excitation at 270 nm of 100 µL solutions in a 1 cm path length Suprasil quartz fluorescence cuvette.
The PerkinElmer LS 55 fluorescence spectrophotometer was used to measure the fluorescence. After 24 h of incubation in buffer solution (40 mM Tris, 10 mM NaCl, pH 7.5), aliquots of each DNA-Compound mixture were combined with TbCl3 to confirm DNA damage. The final concentrations were […] ctDNA, 3 mM TbCl3, and 50 µM of each compound in buffer solution (40 mM Tris, 10 mM NaCl, pH 7.5). Calf thymus DNA (ctDNA) was combined with various quantities of each substance, ranging from 0.1 pM to 200 µM, for the experiment. The ultimate concentrations of […] ctDNA and 3 mM were achieved by adding Tb3 + solution to the ctDNA/compound combinations in buffer solution (40 mM Tris, 10 mM NaCl, pH 7.5) after 24 h of incubation.[44]
All chemicals, solvents, media and kits were purchased from commercial suppliers. […]

Question: How did the Linear dynamic range turn out when `COc1cccc(-n2c(-c3ccccc3)cn(N=C3C(=O)c4cccc5cccc3c45)c2=S)c1` [5e, 2-((3-(3-Methoxyphenyl)-4-phenyl-2-thioxo-2,3-dihydro-1H-imidazol-1-yl)imino)-acenaphthylen-1(2H)-one] was run?
Answer: Its Linear dynamic range is 20.0 to 80.0 µM.

Same assay, conditions: linear region of Tb luminescence vs concentration plot

Question: With `O=C1C(=Nn2cc(-c3ccccc3)n(-c3ccccc3)c2=S)c2cccc3cccc1c23` [5b, 2-((3,4-Diphenyl-2-thioxo-2,3-dihydro-1H-imidazol-1-yl)imino)acenaphthylen-1(2H)-one] as the molecule, how does the “Slope (b)” value read?
Answer: Its value is 13283.

Question: Which “Slope (b)” value does the source give for `COc1cccc(-n2c(-c3ccccc3)cn(N=C3C(=O)c4cccc5cccc3c45)c2=S)c1` [5e, 2-((3-(3-Methoxyphenyl)-4-phenyl-2-thioxo-2,3-dihydro-1H-imidazol-1-yl)imino)-acenaphthylen-1(2H)-one] here?
Answer: The value was 7580.

Question: With `O=C1C(=Nn2cc(-c3ccc(Cl)cc3)n(-c3ccccc3)c2=S)c2cccc3cccc1c23` [5h, 2-((4-(4-chlorophenyl)-3-phenyl-2-thioxo-2,3-dihydro-1H-imidazol-1-yl)imino)-acenaphthylen-1(2H)-one] as the molecule, how does the “Slope (b)” value read?
Answer: Its value is 13306.

Question: For `COc1cccc(-n2c(-c3ccc(Cl)cc3)cn(N=C3C(=O)c4cccc5cccc3c45)c2=S)c1` [5j, 2-((4-(4-Chlorophenyl)-3-(3-methoxyphenyl)-2-thioxo-2,3-dihydro-1H-imidazol-1-yl)-imino)acenaphthylen-1(2H)-one], which “Slope (b)” value is on record?
Answer: The value was 8124.2.

Question: For `COc1cccc2c1C(=O)c1c(O)c3c(c(O)c1C2=O)C[C@@](O)(C(=O)CO)C[C@@H]3O[C@H]1C[C@H](N)[C@H](O)[C@H](C)O1` [doxorubicin, reference compound], which “Slope (b)” value is on record?
Answer: The value was 8923.2.
